Source: paper PMC8429736, “Pharmacological characterization of mutant huntingtin aggregate-directed PET imaging tracer candidates” (Scientific Reports, 2021)
Certain results were filed several times, with different values. The list is limited to them. An entry can have further records. Values given together differ for a reason that is not stated; they may come from other doses, times, organisms or constructs than stated.

System: beta amyloid/tau aggregates in post-mortem AD patient brain homogenates
Assay: ADbh RBA competition format
Conditions: radioligand 4, compound 1 µM, tested as the radiolabelled form

COc1ccc(NC(=O)c2ccn3c(n2)nc2ccccc23)cn1
inhibition at 1 µM: < 5% and 5%
